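Methionyl-tRNA synthetase (putative), Leishmania donovani (UniProt E9BF75). Primary screen of methionyl-tRNA synthetase; the read-out is not stated. The test concentration is not given. Values are per cent inhibition. Size under these conditions: about 68,000 compounds, about 24 of them at 50% or above in at least one test.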

Amino acid sequences for entries named in this document (tags omitted).
UniProt E9BF75, entry or part of it: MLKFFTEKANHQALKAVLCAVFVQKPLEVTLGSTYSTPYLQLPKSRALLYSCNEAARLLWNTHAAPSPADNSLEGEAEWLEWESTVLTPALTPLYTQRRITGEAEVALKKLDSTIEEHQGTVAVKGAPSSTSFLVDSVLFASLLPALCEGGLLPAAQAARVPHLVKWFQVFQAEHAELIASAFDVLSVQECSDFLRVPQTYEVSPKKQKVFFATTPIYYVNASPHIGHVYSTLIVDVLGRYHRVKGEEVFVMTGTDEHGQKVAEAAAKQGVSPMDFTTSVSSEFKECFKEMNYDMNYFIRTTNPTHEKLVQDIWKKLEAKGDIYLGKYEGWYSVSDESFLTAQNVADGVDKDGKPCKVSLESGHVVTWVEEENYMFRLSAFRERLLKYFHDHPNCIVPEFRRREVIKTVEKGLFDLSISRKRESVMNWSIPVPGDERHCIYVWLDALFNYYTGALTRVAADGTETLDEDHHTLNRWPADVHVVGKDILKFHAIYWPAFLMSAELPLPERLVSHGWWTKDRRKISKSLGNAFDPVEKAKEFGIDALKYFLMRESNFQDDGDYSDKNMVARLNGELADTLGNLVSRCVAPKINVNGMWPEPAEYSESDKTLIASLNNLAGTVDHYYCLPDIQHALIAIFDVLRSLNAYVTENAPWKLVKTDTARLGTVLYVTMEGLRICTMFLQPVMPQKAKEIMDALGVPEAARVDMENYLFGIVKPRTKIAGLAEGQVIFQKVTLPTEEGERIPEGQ

All values are in %. The record does not define 0% and 100%; most values in the screen are far below 50% and negative numbers occur (in some assays of this library far below -100). Compounds were drawn at random from those tested, without regard to their results.

SMILES	inhibition
COc1cc(F)c(CN2CC[C@@](O)(C3CC3)[C@H](C)C2)cc1OC	5.842%
N#Cc1c(Cl)nsc1N1CCN(CC2CCCCC2)CC1	10.56%
Cn1cc(N2CCC(NC(=O)c3ccccc3Cl)C2=O)cn1 (stereo not given)	2.135%
CCSCCNC(=O)c1cnc(-c2ccccc2)nc1O	7.692%
Nc1cc(C(=O)NCC2CCN(Cc3ccncc3F)C2)ccn1 (stereo not given)	10.09%
COc1ccccc1C1CCN(C(=O)CN2C(=O)OC(C)(C)C2=O)CC1	17.78%
O=C(CCc1nc(-c2ccccc2)no1)N[C@H]1COC[C@@H]1N1CCCC1	15.82%
Cn1cc(CN2CCO[C@H]3CN(Cc4ccsc4)C[C@H]32)cn1	5.155%
Cc1noc(CN(Cc2ccc3c(c2)OCCO3)Cc2ccco2)n1	9.021%
CCc1nc(CNc2nc3c(s2)c(C)nn3C)cs1	5.842%
Cc1cc2nc(C(C)C)cc(NCC(c3ccccn3)N(C)C)n2n1 (stereo not given)	12.9%
O=S(=O)(NCc1ccnc(-n2ccnc2)c1)c1cncc(F)c1	13.69%
Nc1nccnc1C(=O)NC1CCN(Cc2ccccc2)C1 (stereo not given)	6.983%
O=C(Nc1cccnc1N1CCCC1)C1CCS(=O)(=O)C1 (stereo not given)	21.69%
CCc1nc(CC(=O)N2CCC(C(=O)N3CCCCC3)CC2)cs1	7.521%
CCC[C@H]1CN(c2nc(CO)cs2)C[C@@H]1NC(=O)C1(COC)CC1	26.07%
Cc1cnn(-c2cncc(C(N)=O)c2)c1	17.58%
CNC(=O)Cc1ccc(-n2ccnc2-c2cccc(C(=O)O)c2)cc1	6.863%
CN1CCC(CNC(=O)c2ccc3cccc(Cl)c3n2)C1 (stereo not given)	-15.88%
COC(=O)COc1nc(C(C)C)no1	10.59%
OCCN1CCC(CNCc2ccc(N3CCCCC3)cc2)CC1	9.03%
COc1cc(CNC(=O)c2cc(S(C)(=O)=O)ccc2C)ccn1	14.62%
c1ccc(COC[C@H]2CC[C@H]3[C@H](CCN3Cc3cccs3)O2)nc1	19.78%
CC(C)(C)c1ncc2c(n1)CN(C(=O)c1ccc(C#N)nc1)C2	2.837%
Cc1noc(C)c1C(=O)NCCc1cccs1	10.29%
Cc1ccc(-c2nc(CN3CCn4c(C)nnc4C3)cs2)o1	9.399%
O=C(NCCc1cc(N2CCOCC2)nc(N2CCCC2)n1)C1CC1	13.95%
CC(C)CN1CC[C@@H]2[C@@H]1CCN2C(=O)N1CCCC1	15.57%
Cc1ccc2c(c1)c(CNC(=O)C1CC(=O)N(CCN(C)C)C1)nn2C (stereo not given)	5.455%
COCC(=O)NCCc1ccc(I)s1	8.011%
CC(C)Cc1cc(NC(=O)c2n[nH]c3ccccc23)n(C)n1	17.95%
Cc1ncsc1-c1nnc(C2CCN(Cc3ccc(F)cc3)CC2)o1	-0.3425%
O=C(C[C@@H]1COC[C@H]2CN(Cc3ccc(F)cc3)C[C@@H]12)N1CCCC1	12.97%
O=C(NC1CC1)N1CC[C@@H](O)[C@@H]1Cc1ccccc1	13.78%
Cc1nccc(CNc2cc(N3CCCC3CO)ncn2)n1 (stereo not given)	9.836%
O=C(COc1ccc2c(c1)CCC2)N1CCCC1c1ccc[nH]1 (stereo not given)	17.18%
CN(C)c1cc(CNC(=O)c2ccc(O)nc2)ccn1	11.6%
CC1(c2ccccc2)CCC(=O)N(CCCN2CCOCC2)C1 (stereo not given)	7.343%
CC(C)(CO)NCc1ccc(OCc2ccc3c(c2)OCCO3)cc1	2.266%
Cc1cc2nc(SCC(=O)N3CCCC3)n(C(C)C)c(=O)c2[nH]1	7.042%
CN(Cc1nc(N2CCCC2)ncc1-c1ccncc1)C(=O)C(C)(C)C	21.56%
Cc1nc(CN[C@H]2CCCN(C(=O)OC(C)(C)C)C2)cs1	7.483%
Cc1cc(N2CCN(C(=O)[C@@H]3C[C@@H]4C=C[C@H]3C4)CC2)nc2ccccc12	20.63%
Cc1cc(N2CCC(NC(=O)C3CC3)CC2)nc(-c2ccncc2)n1	17.07%
Cc1nc(N2CCN(C(=O)C3CC3)CC2)c2c(n1)c(C)nn2C	7.054%
COc1c(CNC2CCCOc3ccccc32)c(C(C)C)nn1C (stereo not given)	22.35%
COc1ccc(OC)c(NC(=O)N2CCCC2c2ccco2)c1 (stereo not given)	7.843%
COc1ccc(C(=O)N2C[C@@H](NC(=O)N(C)C)[C@H](C(C)C)C2)c(OC)n1	13.97%
Cc1cc(C)n(CC2CN(Cc3noc(C)n3)CCO2)n1 (stereo not given)	7.104%
c1ccc2c(c1)COC1(CCCCC1)N2	18.16%
CN1CCc2c(CNC(=O)c3nccn3C)cncc2C1	-2.241%
Cc1cnc(N2CCCC3(COCCN(c4ccc(C)nn4)C3)C2)nc1 (stereo not given)	-4.908%
COC1(CNC(=O)c2ccc(Cl)c(Cl)c2)CCSC1 (stereo not given)	8.732%
CCCC(=O)N1CCCCC1c1nc(N(C)C)ncc1-c1cc(C)no1 (stereo not given)	15.58%
NC(=O)CN1CC2(CCC1=O)CCN(Cc1ccc(F)cc1Cl)CC2	16.76%
CC(C)NC(=O)[C@H]1C[C@@H]2[C@@H](C1)OCCN2Cc1cccnc1	12.13%
COC(=O)N1CCC(Nc2cccc(F)c2C#N)CC1	7.711%
CCCc1nc(C(=O)N2CCn3nc(C(=O)OC)cc3C2)cs1	1.27%
COc1ccccc1CCNC(=O)CNC1CCc2nc(C)nn2C1 (stereo not given)	18.01%
CC/N=c1\nc(NCC)nc2n1C(O)(Nc1ccc(C)cc1C)CS2 (stereo not given)	9.485%
CNC(=O)c1cnn2c(C3CCCN3)ccnc12 (stereo not given)	1.266%

The last 5 entries again:

SMILES,inhibition
COC(=O)N1CCC(Nc2cccc(F)c2C#N)CC1,7.711%
CCCc1nc(C(=O)N2CCn3nc(C(=O)OC)cc3C2)cs1,1.27%
COc1ccccc1CCNC(=O)CNC1CCc2nc(C)nn2C1 (stereo not given),18.01%
CC/N=c1\nc(NCC)nc2n1C(O)(Nc1ccc(C)cc1C)CS2 (stereo not given),9.485%
CNC(=O)c1cnn2c(C3CCCN3)ccnc12 (stereo not given),1.266%

Source: ChEMBL document CHEMBL3988442, “University of Dundee, Small-Polar-MMV Screening Library” (2021).